The results in this text go back to article PMC8579453.

By UniProt entry, the sequences of proteins in these tests, tags left out. Residues count along the entry.
UniProt P10912, residues 19-638: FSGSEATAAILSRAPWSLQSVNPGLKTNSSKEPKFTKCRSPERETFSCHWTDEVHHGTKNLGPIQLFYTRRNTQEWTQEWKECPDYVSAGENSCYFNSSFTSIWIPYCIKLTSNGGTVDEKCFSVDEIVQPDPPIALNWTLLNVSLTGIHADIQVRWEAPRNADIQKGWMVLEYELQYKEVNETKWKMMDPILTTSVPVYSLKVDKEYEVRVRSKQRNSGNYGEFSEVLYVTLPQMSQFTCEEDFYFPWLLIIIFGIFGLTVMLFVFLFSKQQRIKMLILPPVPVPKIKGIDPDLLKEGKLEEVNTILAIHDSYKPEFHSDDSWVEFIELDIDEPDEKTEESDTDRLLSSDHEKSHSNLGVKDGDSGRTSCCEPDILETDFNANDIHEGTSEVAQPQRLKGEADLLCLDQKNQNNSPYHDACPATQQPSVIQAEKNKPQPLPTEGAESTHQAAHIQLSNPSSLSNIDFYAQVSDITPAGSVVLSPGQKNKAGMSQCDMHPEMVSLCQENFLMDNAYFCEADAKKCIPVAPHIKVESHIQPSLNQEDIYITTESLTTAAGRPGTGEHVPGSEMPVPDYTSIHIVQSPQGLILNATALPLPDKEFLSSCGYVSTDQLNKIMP
UniProt P35869, residues 11-848: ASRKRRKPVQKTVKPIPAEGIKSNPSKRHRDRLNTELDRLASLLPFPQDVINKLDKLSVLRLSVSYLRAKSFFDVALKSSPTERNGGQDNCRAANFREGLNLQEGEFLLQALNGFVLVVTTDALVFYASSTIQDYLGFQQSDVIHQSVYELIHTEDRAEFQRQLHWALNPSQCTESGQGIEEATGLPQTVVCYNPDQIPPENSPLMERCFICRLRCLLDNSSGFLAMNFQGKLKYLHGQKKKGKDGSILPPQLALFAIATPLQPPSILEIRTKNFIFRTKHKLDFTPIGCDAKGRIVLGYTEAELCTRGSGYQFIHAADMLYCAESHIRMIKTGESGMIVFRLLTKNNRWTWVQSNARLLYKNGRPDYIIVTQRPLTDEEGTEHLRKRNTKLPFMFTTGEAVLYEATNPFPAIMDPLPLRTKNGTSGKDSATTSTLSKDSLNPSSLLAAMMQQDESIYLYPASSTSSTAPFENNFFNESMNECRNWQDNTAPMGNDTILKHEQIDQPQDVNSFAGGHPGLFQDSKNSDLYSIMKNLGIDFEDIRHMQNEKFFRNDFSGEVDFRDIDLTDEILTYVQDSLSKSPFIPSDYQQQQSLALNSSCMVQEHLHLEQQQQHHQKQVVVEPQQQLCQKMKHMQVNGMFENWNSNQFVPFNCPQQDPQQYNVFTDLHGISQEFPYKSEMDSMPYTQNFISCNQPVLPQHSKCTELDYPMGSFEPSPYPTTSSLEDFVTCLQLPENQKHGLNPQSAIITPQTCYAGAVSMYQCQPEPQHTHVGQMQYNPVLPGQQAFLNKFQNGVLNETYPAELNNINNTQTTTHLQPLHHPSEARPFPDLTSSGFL

This test deals with growth hormone receptor (human hepatocytes) (human (endogenous in human hepatocytes)) (UniProt P10912). The test can be described thus: co-IP; human hepatocytes with the AHR ligand Tapinarof, harvested after 24 hours; IP with Beyotime's kit, product verified by Western blot; bait not stated. (In general: A western blot detects proteins with antibodies after separation by electrophoresis.)

Results are given in words; binding and its absence hold for the method and conditions named. In cells and extracts the contact can be indirect.

As to “AHR (human hepatocytes) (from UniProt P35869 11-848)”, the binding entry is given as “no binding”.
